# Results from one PubChem assay

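Inhibition of human mitochondrial aldehyde dehydrogenase (ALDH2) enzyme activity, measured across a dose series in 1536-well plates; the read time is not stated here.
Each molecule was tested over a concentration series that mostly reaches 56 µM.
The value is a potency: the concentration giving half of the fitted maximal inhibition, so lower values mean stronger inhibitors.
Calls follow the fitted curve shape; these molecules are inconclusive because they showed weak, partial, poorly fitted or top-dose-only inhibition.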

Values are in µM.
Every entry below has the call inconclusive.
Only part of the assay is shown, chiefly results filed as inconclusive.
Potencies fitted to partial, single-point or poorly fitting curves are rough.
Some entries filed as inconclusive have a full curve.

| compound | potency (µM) | curve |
|---|---|---|
| `CC1(C)CCC(C)(C)c2cc3c(cc21)Sc1ccccc1N=C3c1ccc(C(=O)O)cc1` | 28.18 | inhibitor, single point |
| `CCCCOc1ccc(S(=O)(=O)n2c(C)nc3ccccc32)cc1` | 12.59 | inhibitor, single point |
| `CCOc1cc2c(cc1OCC)CN(C(=O)c1cc3sccc3n1Cc1ccccc1)CC2` | 19.95 | inhibitor, partial curve, poor fit |
| `Cc1nc(SCC(=O)c2ccc(F)cc2)n[nH]1` | 2.512 | inhibitor, full curve, poor fit |
| `N#Cc1c(-c2cc(F)cc(-c3no[n+]([O-])c3C#N)c2)no[n+]1[O-]` | 0.0891 | inhibitor, full curve, poor fit |
| `COc1ccc(CC(NC(C)=O)C(=O)O)cc1` (centres unmarked) | 28.18 | inhibitor, partial curve, poor fit |
| `Cc1cc(C)c(OP(=O)(OCc2c(-c3ccccc3)no[n+]2[O-])Oc2c(C)cc(C)cc2C)c(C)c1` | 2.512 | inhibitor, full curve |
| `CC1(C)C=CN2C(=O)C3=CCCN3C(=O)[C@@H]2C[C@@]12Nc1ccccc1C2=O` | 12.59 | inhibitor, single point |
| `COc1ccc(-c2ccc3ncnc(NCc4cccs4)c3c2)cc1OC` | 39.81 | inhibitor, single point |
| `COC(=O)CCSC/C=C(\C)CCn1cc(CCc2ccc(-c3ccccc3)cc2)nn1` | 5.623 | inhibitor, partial curve, poor fit |
| `CC(=O)O[C@H]1CC[C@@]2(CI)C(=CC[C@@H]3[C@@H]2CC[C@]2(C)C(=O)CC[C@@H]32)C1` | 35.48 | inhibitor, single point |
| `Cn1nc(-c2ccc(C(F)(F)F)cc2)nc2c(=O)n(C)c(=O)nc1-2` | 5.012 | inhibitor, full curve |
| `CC(C)(C)OC(=O)N1CCN(c2cnc(NCc3ccc(-c4ccc(C#N)cc4)o3)cn2)CC1` | 0.3548 | inhibitor, full curve, poor fit |
| `COc1ccc(-n2c(C)cc(-c3nnc4n3CCCCC4)c2C)cc1` | 19.95 | inhibitor, partial curve |
| `C/C=C/C1=CC2=C(CO1)C(=O)C(C)(OC(=O)c1c(C)cc(O)cc1OC)C(O)C2` (centres unmarked) | 11.22 | inhibitor, partial curve, poor fit |
| `C=C1[C@@]23C(=O)O[C@H](C)[C@]24O[C@@]2(C(=C)[C@]5(C=CC(=O)OC5(C)C)CC[C@]32C)[C@H](O)[C@@]1(C)OC4=O` | 11.22 | inhibitor, single point |
| `C=C/C=C/[C@@H]1OC[C@H](/C=C/C=C/C)[C@H]1O` | 28.18 | inhibitor, single point |
| `CC(C)C[C@H](NC(=O)[C@@H](NC(=O)c1cccc(-c2ccccc2)n1)[C@@H](C)O)B(O)O` | 28.18 | inhibitor, single point |
| `CNC(=O)Oc1ccc2c(c1)[C@]1(C)CCN(C)[C@@H]1N2C` | 14.13 | inhibitor, partial curve |

For reference, 2 entries once more:

{"compound": "CC1(C)CCC(C)(C)c2cc3c(cc21)Sc1ccccc1N=C3c1ccc(C(=O)O)cc1", "potency (µM)": "28.18", "curve": "inhibitor, single point"}
{"compound": "C=C/C=C/[C@@H]1OC[C@H](/C=C/C=C/C)[C@H]1O", "potency (µM)": "28.18", "curve": "inhibitor, single point"}

The results are deposited in PubChem (AID2061308; NCATS, 2025).